The target of this test is ClC-2 chloride channel (endogenous, mouse testes) (mouse (endogenous in mouse testes)) (UniProt Q9R0A1). As to the kind of experiment: co-IP; mouse testis lysates (T-PER reagent) incubated 16 h at 4 °C with protein G sepharose beads pre-coated with rabbit anti-ClC-2 antibody or rabbit IgG; washed in 100 mM NaCl buffer pH 7.5 with and without 0.1% Triton X-100; immunoblot for the chaperones/co-chaperones. On the technique in general: A western blot detects proteins with antibodies after separation by electrophoresis.

The chains behind the UniProt entries cited, without tags or fusion partners.
UniProt Q9R0A1: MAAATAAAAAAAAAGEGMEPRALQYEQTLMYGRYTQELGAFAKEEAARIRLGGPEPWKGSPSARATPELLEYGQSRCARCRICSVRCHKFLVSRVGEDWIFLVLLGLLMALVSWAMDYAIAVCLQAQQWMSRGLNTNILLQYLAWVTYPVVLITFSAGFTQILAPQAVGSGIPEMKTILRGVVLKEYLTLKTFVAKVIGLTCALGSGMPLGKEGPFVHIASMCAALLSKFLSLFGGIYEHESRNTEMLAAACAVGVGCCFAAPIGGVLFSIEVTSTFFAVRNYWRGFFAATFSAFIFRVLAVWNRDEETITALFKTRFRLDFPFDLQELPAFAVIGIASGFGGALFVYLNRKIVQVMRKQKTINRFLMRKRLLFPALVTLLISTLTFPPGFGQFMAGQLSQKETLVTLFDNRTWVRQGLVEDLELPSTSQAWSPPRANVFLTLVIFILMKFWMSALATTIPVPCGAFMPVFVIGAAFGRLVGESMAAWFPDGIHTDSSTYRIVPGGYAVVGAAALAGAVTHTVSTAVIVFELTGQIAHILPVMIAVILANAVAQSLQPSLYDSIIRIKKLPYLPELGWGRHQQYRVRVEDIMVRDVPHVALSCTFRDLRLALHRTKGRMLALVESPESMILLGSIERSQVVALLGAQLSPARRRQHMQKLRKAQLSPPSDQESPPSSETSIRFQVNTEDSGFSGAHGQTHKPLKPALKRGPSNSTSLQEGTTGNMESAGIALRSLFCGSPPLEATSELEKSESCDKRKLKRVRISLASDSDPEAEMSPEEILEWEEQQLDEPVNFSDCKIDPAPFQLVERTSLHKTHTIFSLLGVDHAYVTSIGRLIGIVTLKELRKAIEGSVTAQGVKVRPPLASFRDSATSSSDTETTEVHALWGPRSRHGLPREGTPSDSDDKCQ
UniProt Q8BK64: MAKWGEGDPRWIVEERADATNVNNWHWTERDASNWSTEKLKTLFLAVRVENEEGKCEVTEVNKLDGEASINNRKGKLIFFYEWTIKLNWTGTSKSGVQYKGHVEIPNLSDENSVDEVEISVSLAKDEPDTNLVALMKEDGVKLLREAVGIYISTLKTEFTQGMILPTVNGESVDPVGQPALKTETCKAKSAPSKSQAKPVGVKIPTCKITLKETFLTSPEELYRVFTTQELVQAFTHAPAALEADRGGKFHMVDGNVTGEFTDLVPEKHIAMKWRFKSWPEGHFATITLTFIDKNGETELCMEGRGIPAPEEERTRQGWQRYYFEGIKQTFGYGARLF
UniProt O35465: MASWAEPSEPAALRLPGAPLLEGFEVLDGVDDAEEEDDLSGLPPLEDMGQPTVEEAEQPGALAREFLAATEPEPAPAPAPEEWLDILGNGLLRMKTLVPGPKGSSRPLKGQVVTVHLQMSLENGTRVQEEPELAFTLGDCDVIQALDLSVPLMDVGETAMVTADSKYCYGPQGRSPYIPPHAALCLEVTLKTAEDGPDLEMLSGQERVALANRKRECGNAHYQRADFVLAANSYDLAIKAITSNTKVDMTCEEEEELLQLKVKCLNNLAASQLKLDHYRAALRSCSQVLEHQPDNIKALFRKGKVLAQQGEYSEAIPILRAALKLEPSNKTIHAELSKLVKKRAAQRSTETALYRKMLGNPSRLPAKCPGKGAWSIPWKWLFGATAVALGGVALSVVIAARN

These are yes or no findings as the source states them, for the method shown. Binding seen in cells or lysates may run through a third protein. Some entries that bind do so weakly or less than the wild type.

For “Hsp70/Hsp90 organizing protein (endogenous, mouse testes) (from UniProt Q60864 1-543)”, the binding entry was “binds”.

As for “activator of Hsp90 ATPase homolog 1 (endogenous, mouse testes) (from UniProt Q8BK64 1-338)”, the binding result is “binds”.

“FK506-binding protein 8 (endogenous, mouse testes) (from UniProt O35465 1-402)”: the binding result is on record as “binds”.

The record behind these values is PMC8197790.
